These are yes or no findings as the source states them, for the method shown. Some results given as binding are weak or reduced against the parent protein; the word gives no strength.
Molecular target: human CD137 ECD (Peprotech, cat. 310-15-1MG) (human) (UniProt Q07011)
Test: flow cytometry; CD137L ECD-Fc captured on protein G beads, R-PE labelled CD137 ECD

Amino acid sequences for entries named in this document (tags omitted). A change or cut given only in a name is not applied to a line headed by its entry.
UniProt Q07011: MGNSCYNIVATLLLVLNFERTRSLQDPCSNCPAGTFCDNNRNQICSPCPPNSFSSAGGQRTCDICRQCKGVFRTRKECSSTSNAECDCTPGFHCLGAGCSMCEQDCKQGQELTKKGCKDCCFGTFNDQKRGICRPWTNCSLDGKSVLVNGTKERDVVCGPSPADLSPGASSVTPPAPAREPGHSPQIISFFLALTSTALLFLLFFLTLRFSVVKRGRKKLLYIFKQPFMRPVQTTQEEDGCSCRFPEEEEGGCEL
UniProt P41273: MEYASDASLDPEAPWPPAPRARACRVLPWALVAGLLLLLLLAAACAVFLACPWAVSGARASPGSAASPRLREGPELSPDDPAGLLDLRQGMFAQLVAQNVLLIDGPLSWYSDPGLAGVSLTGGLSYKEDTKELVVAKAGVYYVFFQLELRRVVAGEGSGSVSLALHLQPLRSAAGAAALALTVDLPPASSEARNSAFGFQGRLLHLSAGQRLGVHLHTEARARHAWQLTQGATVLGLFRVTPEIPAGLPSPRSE

In the case of “CD137L ECD fused to the Fc part of a human IgG1 (from UniProt P41273 50-254) (Fc fusion)”, the binding is reported as “binds”.
